The list shows a part of the results. The data scatter; read single values as rough.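 Tm was set to 64 °C where no melting was found, and many curves are irregular.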
Compound: CCc1cnccc1C(=O)Nc1cc2c(cc1F)NC(=O)CC2
Assay: melting temperature shift (DMSO Tm minus MBE1-treated Tm) in cellular thermal proteome profiling; higher = less thermal stabilization by MBE1 (negative = stabilized by MBE1)
Settings: A375

Protein sequences, listed by entry. Tags and fused reporters are not part of them. Lines headed by an entry give the natural chain unless they say otherwise; changes in a name come on top.
UniProt Q8TAG9: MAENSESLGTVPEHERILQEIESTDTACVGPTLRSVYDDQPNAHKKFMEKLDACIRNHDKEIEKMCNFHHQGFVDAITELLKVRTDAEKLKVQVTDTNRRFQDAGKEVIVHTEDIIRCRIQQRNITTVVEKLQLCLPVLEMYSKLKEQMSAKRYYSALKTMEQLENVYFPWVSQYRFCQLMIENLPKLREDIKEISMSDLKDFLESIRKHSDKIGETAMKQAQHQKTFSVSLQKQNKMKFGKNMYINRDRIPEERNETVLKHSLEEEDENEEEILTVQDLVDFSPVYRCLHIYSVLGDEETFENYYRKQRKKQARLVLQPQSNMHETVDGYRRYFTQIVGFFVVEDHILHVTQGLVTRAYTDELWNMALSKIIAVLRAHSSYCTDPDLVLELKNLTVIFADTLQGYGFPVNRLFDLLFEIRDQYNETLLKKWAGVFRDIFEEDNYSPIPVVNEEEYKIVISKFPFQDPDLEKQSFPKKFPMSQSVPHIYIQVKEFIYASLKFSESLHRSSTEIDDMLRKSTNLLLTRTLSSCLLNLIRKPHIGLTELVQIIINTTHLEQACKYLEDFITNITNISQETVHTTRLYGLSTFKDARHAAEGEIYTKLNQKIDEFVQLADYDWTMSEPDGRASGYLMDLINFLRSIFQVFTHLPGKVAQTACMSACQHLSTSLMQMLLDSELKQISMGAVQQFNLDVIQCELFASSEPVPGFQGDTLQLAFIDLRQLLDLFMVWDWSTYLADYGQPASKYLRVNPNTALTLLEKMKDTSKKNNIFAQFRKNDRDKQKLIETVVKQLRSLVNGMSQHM
UniProt Q8NFQ8: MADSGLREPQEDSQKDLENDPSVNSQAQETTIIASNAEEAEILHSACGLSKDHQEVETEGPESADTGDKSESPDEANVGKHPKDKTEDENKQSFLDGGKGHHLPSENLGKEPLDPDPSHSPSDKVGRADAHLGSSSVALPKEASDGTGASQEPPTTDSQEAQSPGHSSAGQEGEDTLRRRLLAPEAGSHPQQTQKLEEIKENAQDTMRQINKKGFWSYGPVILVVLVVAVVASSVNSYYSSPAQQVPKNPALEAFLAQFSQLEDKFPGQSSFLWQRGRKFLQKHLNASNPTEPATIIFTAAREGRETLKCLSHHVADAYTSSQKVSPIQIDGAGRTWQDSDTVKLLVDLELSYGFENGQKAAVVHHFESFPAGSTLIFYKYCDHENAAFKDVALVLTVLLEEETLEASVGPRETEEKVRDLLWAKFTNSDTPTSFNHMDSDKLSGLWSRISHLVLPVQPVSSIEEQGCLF
UniProt Q8NEM2: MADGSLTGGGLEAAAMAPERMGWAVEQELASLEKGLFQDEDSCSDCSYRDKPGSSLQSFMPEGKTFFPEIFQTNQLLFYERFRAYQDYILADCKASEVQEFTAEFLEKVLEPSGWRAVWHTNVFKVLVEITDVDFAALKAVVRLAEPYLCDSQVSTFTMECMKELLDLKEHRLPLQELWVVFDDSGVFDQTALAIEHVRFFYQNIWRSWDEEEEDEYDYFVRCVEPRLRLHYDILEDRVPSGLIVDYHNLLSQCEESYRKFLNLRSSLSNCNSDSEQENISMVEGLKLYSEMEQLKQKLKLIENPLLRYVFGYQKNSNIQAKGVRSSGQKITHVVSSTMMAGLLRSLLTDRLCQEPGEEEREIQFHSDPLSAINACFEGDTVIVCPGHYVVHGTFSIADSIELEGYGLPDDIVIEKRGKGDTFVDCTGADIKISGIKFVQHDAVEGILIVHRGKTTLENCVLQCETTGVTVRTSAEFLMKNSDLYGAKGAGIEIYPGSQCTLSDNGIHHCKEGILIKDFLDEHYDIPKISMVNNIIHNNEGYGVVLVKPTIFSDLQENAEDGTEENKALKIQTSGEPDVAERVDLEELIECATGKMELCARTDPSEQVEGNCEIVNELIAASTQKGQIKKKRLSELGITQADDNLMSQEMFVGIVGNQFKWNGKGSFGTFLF
UniProt Q8NDZ4: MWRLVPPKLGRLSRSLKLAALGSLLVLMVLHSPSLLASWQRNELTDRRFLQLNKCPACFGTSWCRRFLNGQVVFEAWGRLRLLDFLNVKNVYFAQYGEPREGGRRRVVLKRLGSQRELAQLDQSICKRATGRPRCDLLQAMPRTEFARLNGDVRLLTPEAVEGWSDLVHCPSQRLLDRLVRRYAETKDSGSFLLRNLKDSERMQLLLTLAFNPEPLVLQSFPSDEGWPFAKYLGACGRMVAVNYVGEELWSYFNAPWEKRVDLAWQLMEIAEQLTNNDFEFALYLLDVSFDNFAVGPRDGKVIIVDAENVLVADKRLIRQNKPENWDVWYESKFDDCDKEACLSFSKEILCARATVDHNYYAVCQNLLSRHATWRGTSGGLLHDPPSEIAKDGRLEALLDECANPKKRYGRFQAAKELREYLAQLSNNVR
UniProt Q8TAA9: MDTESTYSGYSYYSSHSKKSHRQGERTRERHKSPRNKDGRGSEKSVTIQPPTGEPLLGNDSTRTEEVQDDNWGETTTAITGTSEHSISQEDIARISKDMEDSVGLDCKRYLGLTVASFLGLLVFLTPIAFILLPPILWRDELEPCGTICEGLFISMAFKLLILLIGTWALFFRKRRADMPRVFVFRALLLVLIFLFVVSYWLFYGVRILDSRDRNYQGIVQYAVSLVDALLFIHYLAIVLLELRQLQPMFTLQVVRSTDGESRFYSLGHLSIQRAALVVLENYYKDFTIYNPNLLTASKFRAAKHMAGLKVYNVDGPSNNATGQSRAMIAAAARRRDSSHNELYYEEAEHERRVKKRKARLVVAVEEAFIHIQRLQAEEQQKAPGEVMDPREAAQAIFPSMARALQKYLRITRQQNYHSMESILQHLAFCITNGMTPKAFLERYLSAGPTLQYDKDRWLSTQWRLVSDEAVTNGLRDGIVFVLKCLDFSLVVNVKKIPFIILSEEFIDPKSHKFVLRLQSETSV
UniProt Q8TBB5: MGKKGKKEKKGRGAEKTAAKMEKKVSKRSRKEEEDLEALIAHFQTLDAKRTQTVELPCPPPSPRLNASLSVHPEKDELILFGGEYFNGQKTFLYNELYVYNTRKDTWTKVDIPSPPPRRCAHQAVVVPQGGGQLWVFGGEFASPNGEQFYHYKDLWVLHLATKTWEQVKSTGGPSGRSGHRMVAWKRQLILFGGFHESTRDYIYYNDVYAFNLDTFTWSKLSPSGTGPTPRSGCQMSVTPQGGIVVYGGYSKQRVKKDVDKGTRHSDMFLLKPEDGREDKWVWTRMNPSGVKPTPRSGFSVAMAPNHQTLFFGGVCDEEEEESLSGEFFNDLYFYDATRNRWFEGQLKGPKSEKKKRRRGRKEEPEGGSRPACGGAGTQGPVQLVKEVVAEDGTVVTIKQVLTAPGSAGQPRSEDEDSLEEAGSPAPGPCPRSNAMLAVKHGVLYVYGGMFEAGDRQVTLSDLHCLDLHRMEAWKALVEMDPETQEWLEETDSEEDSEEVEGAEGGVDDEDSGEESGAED
UniProt Q8TD30: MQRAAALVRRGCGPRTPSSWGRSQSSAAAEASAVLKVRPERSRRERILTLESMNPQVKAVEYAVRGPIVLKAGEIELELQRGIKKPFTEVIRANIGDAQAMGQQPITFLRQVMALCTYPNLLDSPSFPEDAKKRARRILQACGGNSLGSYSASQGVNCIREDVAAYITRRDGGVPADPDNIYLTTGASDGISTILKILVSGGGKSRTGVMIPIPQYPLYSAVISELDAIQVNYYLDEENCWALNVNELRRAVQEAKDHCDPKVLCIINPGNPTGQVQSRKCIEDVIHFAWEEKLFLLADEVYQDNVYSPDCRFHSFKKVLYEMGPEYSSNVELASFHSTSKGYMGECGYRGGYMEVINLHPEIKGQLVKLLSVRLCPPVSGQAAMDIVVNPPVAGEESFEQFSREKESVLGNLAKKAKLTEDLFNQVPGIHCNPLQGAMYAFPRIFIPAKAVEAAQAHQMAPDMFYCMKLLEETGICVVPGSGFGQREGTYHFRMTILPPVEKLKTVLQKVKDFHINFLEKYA
UniProt Q8TF05: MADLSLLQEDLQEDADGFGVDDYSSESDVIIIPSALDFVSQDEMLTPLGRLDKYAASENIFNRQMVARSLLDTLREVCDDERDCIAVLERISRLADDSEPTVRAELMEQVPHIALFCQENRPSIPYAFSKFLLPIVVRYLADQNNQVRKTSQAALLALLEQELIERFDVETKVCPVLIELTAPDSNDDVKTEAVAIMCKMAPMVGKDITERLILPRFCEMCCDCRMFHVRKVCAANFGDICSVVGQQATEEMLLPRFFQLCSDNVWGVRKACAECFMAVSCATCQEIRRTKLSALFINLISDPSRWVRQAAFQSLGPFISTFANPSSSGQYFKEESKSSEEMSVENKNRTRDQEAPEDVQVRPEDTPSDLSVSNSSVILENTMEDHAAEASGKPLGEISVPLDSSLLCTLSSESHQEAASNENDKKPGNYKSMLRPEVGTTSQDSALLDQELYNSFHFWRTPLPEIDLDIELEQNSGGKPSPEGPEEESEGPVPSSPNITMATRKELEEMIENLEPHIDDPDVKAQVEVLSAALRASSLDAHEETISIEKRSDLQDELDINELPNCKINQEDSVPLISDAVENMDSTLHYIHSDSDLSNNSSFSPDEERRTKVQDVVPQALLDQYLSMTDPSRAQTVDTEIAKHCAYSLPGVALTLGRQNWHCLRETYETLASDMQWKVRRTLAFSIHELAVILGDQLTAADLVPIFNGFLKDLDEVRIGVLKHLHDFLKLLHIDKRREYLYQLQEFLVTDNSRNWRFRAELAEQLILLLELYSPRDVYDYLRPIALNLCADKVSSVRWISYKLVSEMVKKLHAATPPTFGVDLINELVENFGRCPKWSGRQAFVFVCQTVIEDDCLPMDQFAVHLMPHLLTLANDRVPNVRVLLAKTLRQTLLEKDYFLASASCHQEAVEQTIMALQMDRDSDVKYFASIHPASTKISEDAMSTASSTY
UniProt Q8WVS4: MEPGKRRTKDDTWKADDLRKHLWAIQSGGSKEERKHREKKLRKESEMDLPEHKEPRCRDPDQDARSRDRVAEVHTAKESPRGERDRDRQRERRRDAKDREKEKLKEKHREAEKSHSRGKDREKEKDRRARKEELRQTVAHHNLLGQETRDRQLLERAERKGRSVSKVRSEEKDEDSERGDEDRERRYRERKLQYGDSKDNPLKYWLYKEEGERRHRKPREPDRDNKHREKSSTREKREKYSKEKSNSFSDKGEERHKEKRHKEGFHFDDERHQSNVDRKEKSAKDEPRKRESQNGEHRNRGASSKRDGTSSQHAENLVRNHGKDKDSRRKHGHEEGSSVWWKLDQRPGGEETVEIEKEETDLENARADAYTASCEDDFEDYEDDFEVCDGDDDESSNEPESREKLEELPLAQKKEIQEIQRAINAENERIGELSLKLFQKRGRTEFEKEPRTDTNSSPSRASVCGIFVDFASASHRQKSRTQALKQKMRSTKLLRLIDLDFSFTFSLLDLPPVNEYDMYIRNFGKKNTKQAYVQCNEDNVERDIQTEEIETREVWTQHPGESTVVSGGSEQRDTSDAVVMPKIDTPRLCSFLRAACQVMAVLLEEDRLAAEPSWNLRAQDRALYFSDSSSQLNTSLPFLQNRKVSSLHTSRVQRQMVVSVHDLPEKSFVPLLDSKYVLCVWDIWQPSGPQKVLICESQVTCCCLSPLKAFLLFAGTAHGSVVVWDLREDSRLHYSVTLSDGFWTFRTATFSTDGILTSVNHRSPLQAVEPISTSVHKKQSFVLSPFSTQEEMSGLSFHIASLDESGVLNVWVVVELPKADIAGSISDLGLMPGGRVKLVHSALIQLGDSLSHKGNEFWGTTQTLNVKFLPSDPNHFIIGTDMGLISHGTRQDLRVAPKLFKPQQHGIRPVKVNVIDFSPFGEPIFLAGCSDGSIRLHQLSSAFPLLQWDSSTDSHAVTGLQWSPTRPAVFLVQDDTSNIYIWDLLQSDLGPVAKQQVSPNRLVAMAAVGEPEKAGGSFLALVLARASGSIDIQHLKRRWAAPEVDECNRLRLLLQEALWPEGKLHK
UniProt Q8N9N7: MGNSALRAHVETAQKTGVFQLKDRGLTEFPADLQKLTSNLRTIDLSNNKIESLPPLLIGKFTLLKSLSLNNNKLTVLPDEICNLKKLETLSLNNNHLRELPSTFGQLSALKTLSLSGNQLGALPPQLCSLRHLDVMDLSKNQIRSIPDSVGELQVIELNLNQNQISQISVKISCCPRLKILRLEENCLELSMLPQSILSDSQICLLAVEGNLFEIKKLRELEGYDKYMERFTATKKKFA
UniProt Q8NFH5: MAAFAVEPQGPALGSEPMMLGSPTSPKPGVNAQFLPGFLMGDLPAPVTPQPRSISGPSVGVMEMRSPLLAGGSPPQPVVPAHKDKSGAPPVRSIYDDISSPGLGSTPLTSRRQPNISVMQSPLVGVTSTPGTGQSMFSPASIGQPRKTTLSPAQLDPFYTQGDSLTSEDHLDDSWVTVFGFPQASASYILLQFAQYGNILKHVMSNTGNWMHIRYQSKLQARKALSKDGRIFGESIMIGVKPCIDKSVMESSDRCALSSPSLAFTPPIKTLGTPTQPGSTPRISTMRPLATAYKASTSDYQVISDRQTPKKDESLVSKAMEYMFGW

Row | Target | melting temperature shift (MBE1 concentration: 100 nM) | melting temperature shift (MBE1 concentration: 1 uM)
1 | SHKBP1 (UniProt Q8TBC3) | -2.47 °C | -1.85 °C
2 | EXOC6 (UniProt Q8TAG9) | -0.92 °C | -0.732 °C
3 | UniProt Q8NBM8 | -1.13 °C | -0.183 °C
4 | NANP (UniProt Q8TBE9) | 0.769 °C | 0.525 °C
5 | UniProt Q8NB15 | 0.452 °C | -0.995 °C
6 | MITD1 (UniProt Q8WV92) | -0.95 °C | -0.971 °C
7 | POGLUT1 (UniProt Q8NBL1) | -0.771 °C | 0.245 °C
8 | TRMT10A (UniProt Q8TBZ6) | -0.376 °C | -0.349 °C
9 | SLC30A5 (UniProt Q8TAD4) | -1.17 °C | -0.657 °C
10 | MTMR14 (UniProt Q8NCE2) | 0.727 °C | -0.134 °C
11 | VPS37A (UniProt Q8NEZ2) | -0.583 °C | -0.67 °C
12 | UniProt Q8NFQ8 | -0.939 °C | 0.738 °C
13 | RNF149 (UniProt Q8NC42) | 2.29 °C | -0.733 °C
14 | PLEKHO2 (UniProt Q8TD55) | 1.78 °C | 0.653 °C
15 | ENAH (UniProt Q8N8S7) | -0.235 °C | 0.241 °C
16 | NSUN6 (UniProt Q8TEA1) | -0.55 °C | -0.183 °C
17 | SRFBP1 (UniProt Q8NEF9) | -1.09 °C | 0.423 °C
18 | UniProt Q8N960 | -0.207 °C | -3.4 °C
19 | ZNF579 (UniProt Q8NAF0) | -0.557 °C | -0.0939 °C

Quoted from above: entries 6–10
Row | Target | melting temperature shift (MBE1 concentration: 100 nM) | melting temperature shift (MBE1 concentration: 1 uM)
6 | MITD1 (UniProt Q8WV92) | -0.95 °C | -0.971 °C
7 | POGLUT1 (UniProt Q8NBL1) | -0.771 °C | 0.245 °C
8 | TRMT10A (UniProt Q8TBZ6) | -0.376 °C | -0.349 °C
9 | SLC30A5 (UniProt Q8TAD4) | -1.17 °C | -0.657 °C
10 | MTMR14 (UniProt Q8NCE2) | 0.727 °C | -0.134 °C

Going on with the list.

Row | Target | melting temperature shift (MBE1 concentration: 100 nM) | melting temperature shift (MBE1 concentration: 1 uM)
20 | GTF3C2 (UniProt Q8WUA4) | -0.109 °C | -0.179 °C
21 | UniProt Q8NEJ9 | 0.115 °C | -0.25 °C
22 | SHCBP1 (UniProt Q8NEM2) | 0.44 °C | 0.22 °C
23 | DDX55 (UniProt Q8NHQ9) | -1.25 °C | 0.64 °C
24 | DDX54 (UniProt Q8TDD1) | -0.237 °C | -0.0769 °C
25 | UniProt Q8TDZ2 | -0.234 °C | -0.765 °C
26 | UniProt Q8N9R8 | 1.11 °C | 1.08 °C
27 | COLGALT1 (UniProt Q8NBJ5) | -1.19 °C | -0.0335 °C
28 | TSEN15 (UniProt Q8WW01) | -1.34 °C | -1.11 °C
29 | C3ORF58 (UniProt Q8NDZ4) | -0.41 °C | 0.519 °C
30 | UniProt Q8NFZ0 | -1.44 °C | -4.29 °C
31 | UniProt Q8WVN8 | 2.02 °C | 1.14 °C
32 | DLG5 (UniProt Q8TDM6) | -2.47 °C | -0.279 °C
33 | LPCAT1 (UniProt Q8NF37) | -0.637 °C | 0.617 °C
34 | TBC1D15 (UniProt Q8TC07) | 0.0977 °C | -0.165 °C
35 | UniProt Q8NA72 | -1.99 °C | 0.993 °C
36 | RNF214 (UniProt Q8ND24) | -0.263 °C | -0.442 °C
37 | HM13 (UniProt Q8TCT9) | -0.888 °C | 0.261 °C
38 | UniProt Q8WV16 | 3.32 °C | 0.0611 °C

Row | Target | melting temperature shift (MBE1 concentration: 100 nM) | melting temperature shift (MBE1 concentration: 1 uM)
39 | DDHD1 (UniProt Q8NEL9) | 0.228 °C | 0.00611 °C
40 | MOSPD2 (UniProt Q8NHP6) | 0.421 °C | 0.153 °C
41 | SPATA5 (UniProt Q8NB90) | -0.637 °C | -0.235 °C
42 | VANGL1 (UniProt Q8TAA9) | -1.74 °C | -0.354 °C
43 | UniProt Q8WVF1 | 0.421 °C | 0.33 °C
44 | GADD45GIP1 (UniProt Q8TAE8) | -0.354 °C | -2.11 °C
45 | KLHDC4 (UniProt Q8TBB5) | -0.616 °C | -0.88 °C
46 | GPT2 (UniProt Q8TD30) | -0.0423 °C | -0.113 °C
47 | CHTF18 (UniProt Q8WVB6) | -0.762 °C | -0.301 °C
48 | UniProt Q8NBR6 | 0.58 °C | 0.324 °C
49 | PPP4R1 (UniProt Q8TF05) | 0.556 °C | -0.238 °C
50 | UniProt Q8WVS4 | 1.37 °C | 0.623 °C
51 | WDR36 (UniProt Q8NI36) | 0.904 °C | 0 °C
52 | ZC3H15 (UniProt Q8WU90) | -1.56 °C | 0.268 °C
53 | LRRC57 (UniProt Q8N9N7) | -0.617 °C | -0.0201 °C
54 | PPTC7 (UniProt Q8NI37) | 0.11 °C | 0.171 °C
55 | ENGASE (UniProt Q8NFI3) | -0.858 °C | -0.657 °C
56 | UniProt Q8NHU6 | -0.457 °C | -0.701 °C
57 | NUP35 (UniProt Q8NFH5) | -0.195 °C | 1.22 °C
